The other results are listed elsewhere or left out.
Compound: Cc1cc(ccc1-c1ccccc1)C(=O)N1CCCN(CC1)C(=O)CCl [compound 10]
Assay: probe-labelled cysteine peptide fold change vs DMSO (competition) (log2 fold change); higher = less target engagement (more negative = stronger competition)
Conditions: THP-1, incubation time: 4 h
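Note: competitive profiling in live THP-1 cells: cysteine peptides tagged with an iodoacetamide desthiobiotin (IA-DTB) probe, intensity after compound treatment relative to DMSO-treated cells.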

Amino acid sequences for entries named in this document (tags omitted). A change or cut given only in a name is not applied to a line headed by its entry.
UniProt Q9P2J5: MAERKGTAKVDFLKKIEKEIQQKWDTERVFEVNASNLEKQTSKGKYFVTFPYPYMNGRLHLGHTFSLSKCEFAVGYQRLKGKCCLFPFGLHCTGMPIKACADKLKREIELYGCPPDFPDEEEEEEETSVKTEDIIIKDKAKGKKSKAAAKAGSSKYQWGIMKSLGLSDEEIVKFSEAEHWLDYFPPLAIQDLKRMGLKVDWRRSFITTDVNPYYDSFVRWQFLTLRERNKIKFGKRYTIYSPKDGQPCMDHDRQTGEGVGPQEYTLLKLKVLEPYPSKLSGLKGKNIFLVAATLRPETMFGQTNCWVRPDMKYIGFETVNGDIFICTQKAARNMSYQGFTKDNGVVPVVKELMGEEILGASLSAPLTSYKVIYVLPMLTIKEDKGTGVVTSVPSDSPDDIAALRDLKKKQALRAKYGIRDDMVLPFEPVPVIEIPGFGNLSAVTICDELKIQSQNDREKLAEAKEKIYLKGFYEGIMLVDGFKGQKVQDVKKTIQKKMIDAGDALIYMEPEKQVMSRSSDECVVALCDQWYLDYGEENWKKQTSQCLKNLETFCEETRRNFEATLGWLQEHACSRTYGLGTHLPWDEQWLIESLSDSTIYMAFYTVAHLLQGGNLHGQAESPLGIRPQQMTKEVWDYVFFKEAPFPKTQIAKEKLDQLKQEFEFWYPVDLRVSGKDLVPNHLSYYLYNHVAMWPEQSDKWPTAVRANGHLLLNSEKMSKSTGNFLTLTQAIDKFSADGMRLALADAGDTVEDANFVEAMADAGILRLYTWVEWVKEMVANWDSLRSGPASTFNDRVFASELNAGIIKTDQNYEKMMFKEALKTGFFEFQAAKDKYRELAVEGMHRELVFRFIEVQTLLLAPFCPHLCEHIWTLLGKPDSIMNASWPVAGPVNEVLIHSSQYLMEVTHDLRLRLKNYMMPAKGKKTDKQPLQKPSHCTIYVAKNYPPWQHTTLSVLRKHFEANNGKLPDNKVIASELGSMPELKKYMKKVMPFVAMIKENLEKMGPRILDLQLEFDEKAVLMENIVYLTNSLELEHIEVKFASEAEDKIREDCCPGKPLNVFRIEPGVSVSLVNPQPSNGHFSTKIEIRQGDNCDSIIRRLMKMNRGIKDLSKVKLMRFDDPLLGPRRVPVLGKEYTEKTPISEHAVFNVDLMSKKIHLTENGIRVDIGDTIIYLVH
UniProt Q96EM0: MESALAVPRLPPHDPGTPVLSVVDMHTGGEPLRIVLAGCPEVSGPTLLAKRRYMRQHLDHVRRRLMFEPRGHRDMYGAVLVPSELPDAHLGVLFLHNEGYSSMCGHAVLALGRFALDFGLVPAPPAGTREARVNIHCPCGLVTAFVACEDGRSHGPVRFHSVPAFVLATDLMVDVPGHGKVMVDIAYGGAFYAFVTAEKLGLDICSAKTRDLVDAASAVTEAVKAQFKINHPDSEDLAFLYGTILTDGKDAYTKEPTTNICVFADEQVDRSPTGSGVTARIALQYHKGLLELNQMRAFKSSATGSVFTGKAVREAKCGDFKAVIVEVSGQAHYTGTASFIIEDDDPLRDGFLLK
UniProt Q96JM7: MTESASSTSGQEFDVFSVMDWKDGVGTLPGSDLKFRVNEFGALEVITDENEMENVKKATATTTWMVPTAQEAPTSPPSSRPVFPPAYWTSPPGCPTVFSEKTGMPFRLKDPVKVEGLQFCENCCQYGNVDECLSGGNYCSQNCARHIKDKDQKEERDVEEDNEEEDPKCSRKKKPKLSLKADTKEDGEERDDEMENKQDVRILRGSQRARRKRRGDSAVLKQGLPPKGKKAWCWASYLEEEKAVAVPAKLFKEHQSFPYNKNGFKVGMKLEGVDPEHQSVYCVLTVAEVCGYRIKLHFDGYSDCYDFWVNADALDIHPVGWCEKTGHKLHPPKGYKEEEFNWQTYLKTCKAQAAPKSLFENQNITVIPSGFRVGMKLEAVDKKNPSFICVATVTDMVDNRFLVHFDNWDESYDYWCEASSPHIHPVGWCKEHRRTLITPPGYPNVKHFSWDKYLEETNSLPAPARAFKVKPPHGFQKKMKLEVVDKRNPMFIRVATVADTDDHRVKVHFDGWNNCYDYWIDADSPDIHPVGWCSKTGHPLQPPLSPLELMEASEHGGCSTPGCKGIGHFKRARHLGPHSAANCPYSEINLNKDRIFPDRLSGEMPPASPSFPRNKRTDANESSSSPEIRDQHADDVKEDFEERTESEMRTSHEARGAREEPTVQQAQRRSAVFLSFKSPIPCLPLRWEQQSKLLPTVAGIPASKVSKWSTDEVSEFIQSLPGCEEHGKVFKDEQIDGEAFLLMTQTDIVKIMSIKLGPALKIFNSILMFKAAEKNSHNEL
UniProt Q9Y4W2: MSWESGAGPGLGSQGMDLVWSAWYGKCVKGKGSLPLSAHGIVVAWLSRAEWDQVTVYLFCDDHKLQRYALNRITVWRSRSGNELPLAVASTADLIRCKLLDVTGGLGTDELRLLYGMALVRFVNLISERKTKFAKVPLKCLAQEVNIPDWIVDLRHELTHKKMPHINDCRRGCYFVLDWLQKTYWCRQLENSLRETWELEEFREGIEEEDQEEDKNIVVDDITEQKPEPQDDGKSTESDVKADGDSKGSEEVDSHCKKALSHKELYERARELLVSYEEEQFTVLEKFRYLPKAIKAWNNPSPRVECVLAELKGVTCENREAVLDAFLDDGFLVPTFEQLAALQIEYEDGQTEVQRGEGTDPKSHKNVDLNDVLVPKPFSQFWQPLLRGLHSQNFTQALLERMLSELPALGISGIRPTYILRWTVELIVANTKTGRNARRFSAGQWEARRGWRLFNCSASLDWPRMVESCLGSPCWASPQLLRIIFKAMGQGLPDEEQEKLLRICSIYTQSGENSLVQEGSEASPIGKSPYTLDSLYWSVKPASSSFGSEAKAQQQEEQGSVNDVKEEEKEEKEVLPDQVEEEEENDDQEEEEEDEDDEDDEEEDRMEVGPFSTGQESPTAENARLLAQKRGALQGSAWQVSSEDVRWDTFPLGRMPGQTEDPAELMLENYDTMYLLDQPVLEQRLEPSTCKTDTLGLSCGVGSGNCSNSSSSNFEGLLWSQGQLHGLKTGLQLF
UniProt Q8N4N3: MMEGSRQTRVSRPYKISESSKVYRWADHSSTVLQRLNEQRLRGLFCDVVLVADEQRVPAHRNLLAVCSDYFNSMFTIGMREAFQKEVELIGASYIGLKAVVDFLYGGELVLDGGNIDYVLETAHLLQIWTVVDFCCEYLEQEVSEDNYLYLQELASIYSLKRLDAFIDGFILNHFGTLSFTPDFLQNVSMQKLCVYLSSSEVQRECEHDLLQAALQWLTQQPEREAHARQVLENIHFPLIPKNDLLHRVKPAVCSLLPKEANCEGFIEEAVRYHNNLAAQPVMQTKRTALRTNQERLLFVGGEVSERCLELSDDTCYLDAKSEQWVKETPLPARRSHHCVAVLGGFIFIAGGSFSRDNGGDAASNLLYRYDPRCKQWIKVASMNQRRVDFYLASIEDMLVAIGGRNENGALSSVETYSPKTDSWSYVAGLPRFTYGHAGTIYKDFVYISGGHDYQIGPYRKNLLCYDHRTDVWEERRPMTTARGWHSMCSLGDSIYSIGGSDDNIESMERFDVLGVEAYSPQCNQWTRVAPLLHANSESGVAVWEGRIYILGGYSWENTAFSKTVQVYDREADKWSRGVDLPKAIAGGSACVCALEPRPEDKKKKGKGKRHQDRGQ
UniProt Q07866: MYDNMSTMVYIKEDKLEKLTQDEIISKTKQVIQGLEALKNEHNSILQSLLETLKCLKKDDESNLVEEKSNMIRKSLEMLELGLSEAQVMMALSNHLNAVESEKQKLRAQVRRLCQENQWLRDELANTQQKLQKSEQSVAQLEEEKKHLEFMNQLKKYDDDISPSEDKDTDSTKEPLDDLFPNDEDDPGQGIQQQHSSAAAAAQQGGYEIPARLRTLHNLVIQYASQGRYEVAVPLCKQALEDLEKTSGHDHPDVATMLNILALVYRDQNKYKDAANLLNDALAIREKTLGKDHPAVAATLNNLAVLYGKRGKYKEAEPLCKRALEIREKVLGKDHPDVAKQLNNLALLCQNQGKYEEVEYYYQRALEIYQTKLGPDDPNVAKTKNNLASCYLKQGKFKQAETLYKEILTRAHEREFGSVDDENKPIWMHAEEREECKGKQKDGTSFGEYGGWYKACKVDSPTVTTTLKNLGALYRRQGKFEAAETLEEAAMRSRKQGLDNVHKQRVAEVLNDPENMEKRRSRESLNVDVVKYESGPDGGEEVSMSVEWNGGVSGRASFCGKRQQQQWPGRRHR
UniProt Q16719: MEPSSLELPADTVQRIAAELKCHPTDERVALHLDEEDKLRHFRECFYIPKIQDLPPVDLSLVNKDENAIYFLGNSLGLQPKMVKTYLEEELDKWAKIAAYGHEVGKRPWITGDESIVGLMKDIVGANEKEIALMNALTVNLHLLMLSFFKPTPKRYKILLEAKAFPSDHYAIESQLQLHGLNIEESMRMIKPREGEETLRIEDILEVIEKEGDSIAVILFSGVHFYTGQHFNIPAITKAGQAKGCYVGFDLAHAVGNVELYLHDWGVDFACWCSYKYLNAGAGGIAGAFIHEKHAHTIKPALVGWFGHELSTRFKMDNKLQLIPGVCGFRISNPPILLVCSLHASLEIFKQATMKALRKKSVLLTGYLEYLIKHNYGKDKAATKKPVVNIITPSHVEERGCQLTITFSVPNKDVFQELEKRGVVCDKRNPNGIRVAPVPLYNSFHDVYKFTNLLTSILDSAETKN
UniProt Q13601: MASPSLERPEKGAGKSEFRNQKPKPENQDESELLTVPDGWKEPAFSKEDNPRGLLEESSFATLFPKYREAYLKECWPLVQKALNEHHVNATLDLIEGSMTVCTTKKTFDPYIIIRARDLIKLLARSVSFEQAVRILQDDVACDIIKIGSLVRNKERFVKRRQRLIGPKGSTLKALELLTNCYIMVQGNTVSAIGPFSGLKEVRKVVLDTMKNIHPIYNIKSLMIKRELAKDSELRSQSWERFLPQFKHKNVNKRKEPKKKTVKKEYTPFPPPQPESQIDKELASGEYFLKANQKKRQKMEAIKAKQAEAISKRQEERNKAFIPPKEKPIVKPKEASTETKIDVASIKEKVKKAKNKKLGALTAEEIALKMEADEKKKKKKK
UniProt O60294: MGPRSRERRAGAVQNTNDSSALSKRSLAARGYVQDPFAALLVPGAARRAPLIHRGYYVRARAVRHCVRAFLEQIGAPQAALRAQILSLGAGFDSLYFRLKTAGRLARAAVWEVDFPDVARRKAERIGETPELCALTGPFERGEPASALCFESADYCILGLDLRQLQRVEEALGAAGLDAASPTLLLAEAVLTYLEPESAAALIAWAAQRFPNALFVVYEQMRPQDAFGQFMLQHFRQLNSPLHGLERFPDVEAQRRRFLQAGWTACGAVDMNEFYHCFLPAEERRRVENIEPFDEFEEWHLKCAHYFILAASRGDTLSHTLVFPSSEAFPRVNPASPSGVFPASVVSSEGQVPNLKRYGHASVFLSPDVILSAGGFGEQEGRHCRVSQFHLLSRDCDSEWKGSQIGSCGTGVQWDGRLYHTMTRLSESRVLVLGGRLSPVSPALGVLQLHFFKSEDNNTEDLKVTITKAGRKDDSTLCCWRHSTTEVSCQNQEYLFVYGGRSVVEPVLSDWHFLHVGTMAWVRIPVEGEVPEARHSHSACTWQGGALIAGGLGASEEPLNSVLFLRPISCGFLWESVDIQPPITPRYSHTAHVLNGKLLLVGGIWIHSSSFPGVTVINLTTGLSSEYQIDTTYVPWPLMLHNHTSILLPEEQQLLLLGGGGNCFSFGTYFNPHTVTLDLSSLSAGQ

Row | Target | probe-labelled cysteine peptide fold change (10 µM) | probe-labelled cysteine peptide fold change (50 µM)
1 | LARS_Q9P2J5_573_NFEATLGWLQEHACSR (UniProt Q9P2J5) | -0.0255 | 0.121
2 | KIF2A_O00139_420_LIDIGNSCR (UniProt O00139) | -0.0416 | -0.0312
3 | KIFC1_Q9BW19_663_VNQCVIGTAQANRK (UniProt Q9BW19) | -0.016 | -0.249
4 | L3HYPDH_Q96EM0_137_VNIHCPCGLVTAFVACEDGR (UniProt Q96EM0) | 0.0341 | -0.405
5 | L3MBTL3_Q96JM7_723_WSTDEVSEFIQSLPGCEEHGK (UniProt Q96JM7) | 0.131 | 0.0663
6 | LDLR_P01130_377+379_CQCEEGFQLDPHTK (UniProt P01130) | -0.198 | 0.243
7 | LAS1L_Q9Y4W2_169_KMPHINDCRR (UniProt Q9Y4W2) | -0.13 | -0.679
8 | KMT2D_O14686_5338_HPLMELPLMINPTGCAR (UniProt O14686) | 0.154 | 0.341
9 | KLHL36_Q8N4N3_206_ECEHDLLQAALQWLTQQPER (UniProt Q8N4N3) | 0.342 | -0.0783
10 | KLHL42_Q9P2K6_444_SGLNLTCALHNDGIYIMSR (UniProt Q9P2K6) | -0.0699 | 0.0926
11 | KLHDC3_Q9BQ90_355_LAVIQYNLDQSCLPHDIR (UniProt Q9BQ90) | 0.16 | 0.34
12 | KLC1_Q07866_436_EFGSVDDENKPIWMHAEEREECK (UniProt Q07866) | 0.102 | -0.19
13 | KIF2C_Q99661_245_ATLECHPLTMTDPIEEHR (UniProt Q99661) | 0.0578 | -0.0775
14 | KPNA6_O60684_427_YLVSLGCIKPLCDLLTVMDSK (UniProt O60684) | -0.101 | -0.85
15 | KYNU_Q16719_45_HFRECFYIPK (UniProt Q16719) | -0.353 | -0.676
16 | KRR1_Q13601_142_ILQDDVACDIIK (UniProt Q13601) | 0.0484 | 0.124
17 | LARP1_Q6PKG0_502_REEPEKWPLPPIVDYSQTDFSQLLNCPEFVPR (UniProt Q6PKG0) | -0.146 | -0.353

Row | Target | probe-labelled cysteine peptide fold change (10 µM) | probe-labelled cysteine peptide fold change (50 µM)
18 | KYAT3_Q6YP21_313_HLQTVQQNTIYTCATPLQEALAQAFWIDIKR (UniProt Q6YP21) | 0.298 | 0.0587
19 | LARS_Q9P2J5_1093_QGDNCDSIIR (UniProt Q9P2J5) | -0.104 | 0.102
20 | LCMT2_O60294_396_DCDSEWK (UniProt O60294) | -0.0402 | 0.111
21 | LDHD_Q86WU2_462_ALALHGTCTGEHGIGMGKR (UniProt Q86WU2) | -0.161 | -0.533
22 | LAP3_P28838_445_QVVDCQLADVNNIGK (UniProt P28838) | 0.0354 | 0.0552
23 | KPNA6_O60684_422_YLVSLGCIK (UniProt O60684) | 0.107 | 0.27
24 | LARP4_Q71RC2_599_ASTASPCNNNINAATAVALQEPR (UniProt Q71RC2) | -0.38 | -0.0447
25 | LARS_Q9P2J5_70_CEFAVGYQR (UniProt Q9P2J5) | -0.278 | -0.616
26 | KMT2A_Q03164_1194_CQNLQWMPSK (UniProt Q03164) | -0.0227 | -0.0648
27 | L3HYPDH_Q96EM0_139+148_VNIHCPCGLVTAFVACEDGR (UniProt Q96EM0) | -0.119 | -0.506
28 | LANCL2_Q9NS86_149_RVTFLCGDAGPLAVGAVIYHK (UniProt Q9NS86) | -0.376 | -0.276
29 | L2HGDH_Q9H9P8_376_ACFLGATVK (UniProt Q9H9P8) | 0.0555 | -0.155
30 | LAMC1_P11047_447_CQPGFHSLTEAGCRPCSCDPSGSIDECNIETGR (UniProt P11047) | 0.07 | 0.0163
31 | KNTC1_P50748_1825_WLCPSTKPGEKPSELFELQEDEALRR (UniProt P50748) | 0.0635 | -0.0869
32 | KLC4_Q9NSK0_489_QGKLEAAETLEECALR (UniProt Q9NSK0) | -0.173 | -0.911
33 | KLHDC4_Q8TBB5_465_QVTLSDLHCLDLHR (UniProt Q8TBB5) | -0.0743 | -0.0653
34 | KPNB1_Q14974_345_GALQYLVPILTQTLTKQDENDDDDDWNPCK (UniProt Q14974) | 0.0867 | -0.311

— the supplement of paper PMC12067093, “Discovery and optimisation of a covalent ligand for TRIM25 and its application to targeted protein ubiquitination” (Chemical Science, 2025)
